Results reported in patent publication US7282344B2, “Cation conducting GABAA receptors and their use” (Neurosearch A/S, priority 2001, dated 2007).

Tested on: CHO-K1 cells expressing GABAA receptors
Experiment: Whole cell patch clamp, reversal potentials of GABA-activated currents
Type: cell-based, human

Which results are given for “α2 β3 γ2: wild-type human GABAA receptor of α2, β3 and γ2 subunits expressed in CHO-K1 cells”?
Vrev Na-R (extracellular solution 140 mM NaCl, GABA-activated currents): 1.3 ± 0.7 mV ± SEM; Vrev Gluconate-R (low chloride extracellular solution (Gluconate-R)): 33.5 ± 2.4 mV ± SEM; Vrev NMDG-R (low sodium extracellular solution (NMDG-R)): 0.8 ± 2.0 mV ± SEM; Conductance indicated by shift in reversal potential (shift from Na-R to Gluconate-R or NMDG-R): chloride conductance
